According to paper PMC5762779, “The peroxisomal AAA-ATPase Pex1/Pex6 unfolds substrates by processive threading” (Nature Communications, 2018):
Results are given in words; binding and its absence hold for the method and conditions named. Some entries that bind do so weakly or less than the wild type. For some of these results: Tags and fused reporters may be left off the sequences shown.

Key:
[1] = molecular target: T1, MBP-Pex15 1-327-FLAG-His (S. cerevisiae) (UniProt Q08215); assay: pull-down; 1 uM MBP-Pex15 1-327-FLAG-His on magnetic amylose resin with 0.5 uM Pex1-Strep/His-Pex6 hexamer, His-Pex1-FLAG, His-Pex6-FLAG or 5 uM His-Pex6 1-215; 1 h, 4 °C, 60 mM HEPES pH 7.6, 150 mM NaCl, 150 mM KCl, 10% glycerol, 0.05% Tween-20, 10 mM MgCl2, 0.5 mM EDTA, 5 mM ATP; maltose elution; SYPRO-Ruby or anti-His blot; both purified
T1 sequence: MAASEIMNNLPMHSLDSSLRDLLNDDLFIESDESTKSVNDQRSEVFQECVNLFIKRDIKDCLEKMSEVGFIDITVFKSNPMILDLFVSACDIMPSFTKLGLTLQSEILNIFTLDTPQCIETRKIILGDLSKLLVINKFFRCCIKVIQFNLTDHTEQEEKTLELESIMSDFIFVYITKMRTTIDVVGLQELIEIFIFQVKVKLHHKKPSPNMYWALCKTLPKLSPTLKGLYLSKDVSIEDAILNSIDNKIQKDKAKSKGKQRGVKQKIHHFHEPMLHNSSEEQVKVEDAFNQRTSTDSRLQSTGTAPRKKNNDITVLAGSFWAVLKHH

[2] = molecular target: Pex1-Strep/His-Pex6 D2 pore-loop mutant (Pex1-F771A, Pex6-Y805A) (S. cerevisiae) (UniProt P24004+P33760); assay: pull-down; Pex1-Strep/His-Pex6 (1.2 μM) held on MagStrep magnetic beads, 21 μM Pex15 1-327-FLAG-His, ATP regeneration mix; washes in 60 mM HEPES pH 7.6, 150 mM NaCl, 150 mM KCl, 10% glycerol, 0.05% Tween-20, 10 mM MgCl2, 0.5 mM EDTA, 1 mM ATP; eluted with 2 mM biotin; both purified
[3] = molecular target: Pex1-Strep/His-Pex6 hexamer, wild type (S. cerevisiae) (UniProt P24004+P33760); assay: as above
His-Pex6 (S. cerevisiae) [4] = molecular target: T2, His-Pex6 (S. cerevisiae) (UniProt P33760); assay: tandem affinity co-purification (Ni-NTA, anti-FLAG) + SEC; Pex1-FLAG and His-Pex6 co-expressed in E. coli; Ni-NTA by His-Pex6, then anti-FLAG resin by Pex1-FLAG, with 1 mM ATP; hexamer separated on Superose6
T2 sequence: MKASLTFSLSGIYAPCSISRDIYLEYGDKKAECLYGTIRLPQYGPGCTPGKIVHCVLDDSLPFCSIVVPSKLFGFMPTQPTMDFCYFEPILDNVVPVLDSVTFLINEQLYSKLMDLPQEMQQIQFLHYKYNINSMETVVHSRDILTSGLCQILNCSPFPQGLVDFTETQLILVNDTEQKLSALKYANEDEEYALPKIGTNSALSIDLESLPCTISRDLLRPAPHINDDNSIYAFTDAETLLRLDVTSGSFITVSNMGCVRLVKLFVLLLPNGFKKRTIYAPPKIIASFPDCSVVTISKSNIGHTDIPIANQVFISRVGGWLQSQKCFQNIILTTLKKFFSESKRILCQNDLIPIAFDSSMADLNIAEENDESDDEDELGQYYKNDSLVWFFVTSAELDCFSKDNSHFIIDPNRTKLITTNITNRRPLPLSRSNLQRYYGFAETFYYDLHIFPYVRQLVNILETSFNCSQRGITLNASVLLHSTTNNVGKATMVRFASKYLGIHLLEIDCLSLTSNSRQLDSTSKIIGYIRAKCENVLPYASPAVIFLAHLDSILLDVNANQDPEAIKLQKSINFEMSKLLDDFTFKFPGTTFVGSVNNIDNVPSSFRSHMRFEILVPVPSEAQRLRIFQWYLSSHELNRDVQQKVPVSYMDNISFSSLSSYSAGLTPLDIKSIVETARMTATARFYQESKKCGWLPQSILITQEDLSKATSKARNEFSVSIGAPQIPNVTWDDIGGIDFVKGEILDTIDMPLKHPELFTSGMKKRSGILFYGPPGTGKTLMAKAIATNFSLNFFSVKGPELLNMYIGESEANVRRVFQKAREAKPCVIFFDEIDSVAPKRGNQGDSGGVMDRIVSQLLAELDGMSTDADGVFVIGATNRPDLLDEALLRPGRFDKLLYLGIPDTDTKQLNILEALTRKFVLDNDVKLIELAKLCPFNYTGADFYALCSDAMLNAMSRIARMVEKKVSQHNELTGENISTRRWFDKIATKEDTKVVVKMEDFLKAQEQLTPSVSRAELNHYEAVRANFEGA

His-Pex6 (S. cerevisiae) [5] = molecular target: T2, His-Pex6 (S. cerevisiae); assay: negative-stain EM reconstruction; 20 nM Pex1-FLAG/His-Pex6 mixed with 200 nM Pex15, 5 min on ice, 5 mM ATP; 3D reconstruction at 23.2 Å; both purified
[6] = molecular target: Pex1-FLAG/His-Pex6 hexamer, wild type (S. cerevisiae) (UniProt P24004+P33760); assay: as above
[7] = molecular target: Pex1-WB2/Pex6-WB2 hexamer (Pex1-Strep E798Q / His-Pex6 E832Q) (S. cerevisiae) (UniProt P24004+P33760); assay: HDX-MS; 60 μM Pex15 incubated with 2 μM Pex1-WB2/Pex6-WB2 hexamer for 1 min, diluted into D2O buffer (60 mM HEPES pD 7.6, 50 mM NaCl, 50 mM KCl, 10% glycerol, 10 mM MgCl2, 0.5 mM EDTA, 5 mM ATP); exchange with 3 μM Pex15 1-309 and 100 nM Pex1/Pex6, quenched after 15 or 600 s; both purified

B1: His-Pex1-FLAG (protein, UniProt P24004 1-1043)
chain: MTTTKRLKFENLRIQFSNAIVGNFLRLPHSIINVLESTNYAIQEFGIAVHSHNSDIPIVHLGWDGHDSGSSENVVLINPVLATVYDLNQKSPLVDLYIQRYDHTHLATEVYVTPETSDDWEIIDANAMRFQNGEILHQTRIVTPGETLICYLEGIVTKFKIDRVEPSMKSARITDGSLVVVAPKVNKTRLVKAEYGHSNKTILKNGAIQLLKKVILRSTVCKMDFPKDNLFVVYISDGAQLPSQKGYASIVKCSLRQSKKSDSDNKSVGIPSKKIGVFIKCDSQIPENHIALSSHLWDAFFTHPMNGAKIKLEFLQMNQANIISGRNATVNIKYFGKDVPTKSGDQYSKLLGGSLLTNNLILPTEQIIIEIKKGESEQQLCNLNEISNESVQWKVTQMGKEEVKDIIERHLPKHYHVKETGEVSRTSKDEDDFITVNSIKKEMVNYLTSPIIATPAIILDGKQGIGKTRLLKELINEVEKDHHIFVKYADCETLHETSNLDKTQKLIMEWCSFCYWYGPSLIVLDNVEALFGKPQANDGDPSNNGQWDNASKLLNFFINQVTKIFNKDNKRIRVLFSGKQKTQINPLLFDKHFVSETWSLRAPDKHARAKLLEYFFSKNQIMKLNRDLQFSDLSLETEGFSPLDLEIFTEKIFYDLQLERDCDNVVTRELFSKSLSAFTPSALRGVKLTKETNIKWGDIGALANAKDVLLETLEWPTKYEPIFVNCPLRLRSGILLYGYPGCGKTLLASAVAQQCGLNFISVKGPEILNKFIGASEQNIRELFERAQSVKPCILFFDEFDSIAPKRGHDSTGVTDRVVNQLLTQMDGAEGLDGVYILAATSRPDLIDSALLRPGRLDKSVICNIPTESERLDILQAIVNSKDKDTGQKKFALEKNADLKLIAEKTAGFSGADLQGLCYNAYLKSVHRWLSAADQSEVVPGNDNIEYFSINEHGRREENRLRLKTLLQQDVVHETKTSTSAASELTAVVTINDLLEACQETKPSISTSELVKLRGIYDRFQKDRNGEMPNGENSIDIGSRLSLM
Q: With B1 as the binder, how does the binding [1] read?
A: The binding was “no binding (tested: 0.5 uM)”.

B2: Pex15 1-327-FLAG-His (domain or fragment, UniProt Q08215 1-327)
chain: MAASEIMNNLPMHSLDSSLRDLLNDDLFIESDESTKSVNDQRSEVFQECVNLFIKRDIKDCLEKMSEVGFIDITVFKSNPMILDLFVSACDIMPSFTKLGLTLQSEILNIFTLDTPQCIETRKIILGDLSKLLVINKFFRCCIKVIQFNLTDHTEQEEKTLELESIMSDFIFVYITKMRTTIDVVGLQELIEIFIFQVKVKLHHKKPSPNMYWALCKTLPKLSPTLKGLYLSKDVSIEDAILNSIDNKIQKDKAKSKGKQRGVKQKIHHFHEPMLHNSSEEQVKVEDAFNQRTSTDSRLQSTGTAPRKKNNDITVLAGSFWAVLKHH
Q: Which binding [2] does the source give for B2 here?
A: Its binding is “binds”.

Q: And the binding [3]?
A: The binding was “binds”.

B3: Pex1-FLAG (protein, UniProt P24004 1-1043)
chain: MTTTKRLKFENLRIQFSNAIVGNFLRLPHSIINVLESTNYAIQEFGIAVHSHNSDIPIVHLGWDGHDSGSSENVVLINPVLATVYDLNQKSPLVDLYIQRYDHTHLATEVYVTPETSDDWEIIDANAMRFQNGEILHQTRIVTPGETLICYLEGIVTKFKIDRVEPSMKSARITDGSLVVVAPKVNKTRLVKAEYGHSNKTILKNGAIQLLKKVILRSTVCKMDFPKDNLFVVYISDGAQLPSQKGYASIVKCSLRQSKKSDSDNKSVGIPSKKIGVFIKCDSQIPENHIALSSHLWDAFFTHPMNGAKIKLEFLQMNQANIISGRNATVNIKYFGKDVPTKSGDQYSKLLGGSLLTNNLILPTEQIIIEIKKGESEQQLCNLNEISNESVQWKVTQMGKEEVKDIIERHLPKHYHVKETGEVSRTSKDEDDFITVNSIKKEMVNYLTSPIIATPAIILDGKQGIGKTRLLKELINEVEKDHHIFVKYADCETLHETSNLDKTQKLIMEWCSFCYWYGPSLIVLDNVEALFGKPQANDGDPSNNGQWDNASKLLNFFINQVTKIFNKDNKRIRVLFSGKQKTQINPLLFDKHFVSETWSLRAPDKHARAKLLEYFFSKNQIMKLNRDLQFSDLSLETEGFSPLDLEIFTEKIFYDLQLERDCDNVVTRELFSKSLSAFTPSALRGVKLTKETNIKWGDIGALANAKDVLLETLEWPTKYEPIFVNCPLRLRSGILLYGYPGCGKTLLASAVAQQCGLNFISVKGPEILNKFIGASEQNIRELFERAQSVKPCILFFDEFDSIAPKRGHDSTGVTDRVVNQLLTQMDGAEGLDGVYILAATSRPDLIDSALLRPGRLDKSVICNIPTESERLDILQAIVNSKDKDTGQKKFALEKNADLKLIAEKTAGFSGADLQGLCYNAYLKSVHRWLSAADQSEVVPGNDNIEYFSINEHGRREENRLRLKTLLQQDVVHETKTSTSAASELTAVVTINDLLEACQETKPSISTSELVKLRGIYDRFQKDRNGEMPNGENSIDIGSRLSLM
Q: Which binding (His-Pex6 (S. cerevisiae) [4]) does the source give for B3 here?
A: Its binding is “binds”.

B4: Pex15 cytosolic domain (aa 1-327), as used for negative-stain EM (domain or fragment, S. cerevisiae, UniProt Q08215 1-327, looked up)
chain: MAASEIMNNLPMHSLDSSLRDLLNDDLFIESDESTKSVNDQRSEVFQECVNLFIKRDIKDCLEKMSEVGFIDITVFKSNPMILDLFVSACDIMPSFTKLGLTLQSEILNIFTLDTPQCIETRKIILGDLSKLLVINKFFRCCIKVIQFNLTDHTEQEEKTLELESIMSDFIFVYITKMRTTIDVVGLQELIEIFIFQVKVKLHHKKPSPNMYWALCKTLPKLSPTLKGLYLSKDVSIEDAILNSIDNKIQKDKAKSKGKQRGVKQKIHHFHEPMLHNSSEEQVKVEDAFNQRTSTDSRLQSTGTAPRKKNNDITVLAGSFWAVLKHH
notes: Pex15, S. cerevisiae W303, cytosolic domain residues 1-327; also called Pex15 cytosolic portion; source: E. coli BL21*, purified (Ni-NTA, Superdex 200); not shown: His, C-terminal, cleaved
Q: What does the source list for B4?
A: binding (His-Pex6 (S. cerevisiae) [5]): binds; binding [6]: binds

B5: Pex15 1-309 (domain or fragment, UniProt Q08215 1-309)
chain: MAASEIMNNLPMHSLDSSLRDLLNDDLFIESDESTKSVNDQRSEVFQECVNLFIKRDIKDCLEKMSEVGFIDITVFKSNPMILDLFVSACDIMPSFTKLGLTLQSEILNIFTLDTPQCIETRKIILGDLSKLLVINKFFRCCIKVIQFNLTDHTEQEEKTLELESIMSDFIFVYITKMRTTIDVVGLQELIEIFIFQVKVKLHHKKPSPNMYWALCKTLPKLSPTLKGLYLSKDVSIEDAILNSIDNKIQKDKAKSKGKQRGVKQKIHHFHEPMLHNSSEEQVKVEDAFNQRTSTDSRLQSTGTAPRKK
Q: B5 was tested. Which binding [7] did it give?
A: The binding was “binds”.
